Data reported in paper PMC11419264.
No constants are given. Whether binding was seen depends on the method and setting. In cells and extracts the contact can be indirect. Some results given as binding are weak or reduced against the parent protein; the word gives no strength. Sequences can lack the tags named with a protein.

By UniProt entry, the sequences of proteins in these tests, tags left out. Residues count along the entry.
UniProt P40939, residues 37-763: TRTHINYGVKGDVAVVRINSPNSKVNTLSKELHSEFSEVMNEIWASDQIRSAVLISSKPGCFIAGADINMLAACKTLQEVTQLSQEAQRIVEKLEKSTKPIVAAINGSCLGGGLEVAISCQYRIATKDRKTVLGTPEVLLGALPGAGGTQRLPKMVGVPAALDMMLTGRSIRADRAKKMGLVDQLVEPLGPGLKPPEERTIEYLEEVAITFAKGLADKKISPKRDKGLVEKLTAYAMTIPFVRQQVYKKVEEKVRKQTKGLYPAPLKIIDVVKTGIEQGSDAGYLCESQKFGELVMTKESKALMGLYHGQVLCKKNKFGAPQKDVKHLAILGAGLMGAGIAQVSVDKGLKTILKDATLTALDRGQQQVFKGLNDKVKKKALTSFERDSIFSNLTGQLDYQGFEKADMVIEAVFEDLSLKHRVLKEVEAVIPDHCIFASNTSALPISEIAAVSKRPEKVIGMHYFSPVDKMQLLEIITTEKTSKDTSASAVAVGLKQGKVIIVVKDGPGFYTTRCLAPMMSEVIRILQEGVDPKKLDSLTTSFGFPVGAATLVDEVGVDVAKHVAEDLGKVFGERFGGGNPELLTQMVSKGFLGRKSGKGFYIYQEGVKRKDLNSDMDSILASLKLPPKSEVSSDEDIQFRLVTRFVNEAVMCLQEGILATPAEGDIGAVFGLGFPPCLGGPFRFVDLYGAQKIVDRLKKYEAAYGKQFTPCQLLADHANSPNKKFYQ

T1: ECHB, beta subunit of the mitochondrial trifunctional protein (mTFP) (human (endogenous in HEK293)) (UniProt P55084)
T1 sequence: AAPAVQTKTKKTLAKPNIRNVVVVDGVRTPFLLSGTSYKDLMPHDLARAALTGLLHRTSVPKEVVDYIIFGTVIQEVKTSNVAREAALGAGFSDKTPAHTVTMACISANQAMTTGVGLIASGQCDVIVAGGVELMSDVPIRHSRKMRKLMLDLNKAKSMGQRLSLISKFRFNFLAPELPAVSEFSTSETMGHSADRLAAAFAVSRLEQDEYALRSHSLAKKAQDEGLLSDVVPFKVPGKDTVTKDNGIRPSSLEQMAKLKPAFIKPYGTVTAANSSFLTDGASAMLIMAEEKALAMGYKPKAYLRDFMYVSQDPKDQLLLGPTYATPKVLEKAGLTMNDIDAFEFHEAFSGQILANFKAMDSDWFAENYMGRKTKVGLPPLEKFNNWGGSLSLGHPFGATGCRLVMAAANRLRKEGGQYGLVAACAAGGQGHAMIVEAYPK

T2: Human CALHM2 Myc-DDK-tagged (human) (UniProt Q9HA72)
T2 sequence: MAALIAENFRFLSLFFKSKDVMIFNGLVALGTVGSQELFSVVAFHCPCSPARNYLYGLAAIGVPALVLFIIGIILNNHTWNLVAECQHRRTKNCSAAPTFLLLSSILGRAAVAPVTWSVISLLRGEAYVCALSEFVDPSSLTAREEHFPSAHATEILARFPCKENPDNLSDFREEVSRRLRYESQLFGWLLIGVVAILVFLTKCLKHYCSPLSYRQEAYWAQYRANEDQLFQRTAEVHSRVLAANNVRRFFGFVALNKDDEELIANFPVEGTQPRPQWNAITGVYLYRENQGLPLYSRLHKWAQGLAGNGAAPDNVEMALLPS


Experiments:
Experiment in all cases: co-IP; CALHM2-myc transfected into HEK293 cells; lysis in NP-40 buffer (150 mM NaCl, 1.0% NP40, 50 mM Tris, pH 8.0); pre-cleared with Protein A beads; primary antibody overnight at 4°C; Protein A beads; western blot; IgG control
[1] = target: T1, ECHB, beta subunit of the mitochondrial trifunctional protein (mTFP) (human (endogenous in HEK293))
[2] = target: T2, Human CALHM2 Myc-DDK-tagged (human)
[3] = target: ECHA, alpha subunit of the mitochondrial trifunctional protein (mTFP) (human (endogenous in HEK293)) (UniProt P40939)

binding [1]	binding [2]	binding [3]	Molecule
binds	binds		ECHA, alpha subunit of the mitochondrial trifunctional protein (mTFP) (from UniProt P40939 37-763)
binds		binds	Human CALHM2 Myc-DDK-tagged (protein, UniProt Q9HA72 1-323) MAALIAENFRFLSLFFKSKDVMIFNGLVALGTVGSQELFSVVAFHCPCSPARNYLYGLAAIGVPALVLFIIGIILNNHTWNLVAECQHRRTKNCSAAPTFLLLSSILGRAAVAPVTWSVISLLRGEAYVCALSEFVDPSSLTAREEHFPSAHATEILARFPCKENPDNLSDFREEVSRRLRYESQLFGWLLIGVVAILVFLTKCLKHYCSPLSYRQEAYWAQYRANEDQLFQRTAEVHSRVLAANNVRRFFGFVALNKDDEELIANFPVEGTQPRPQWNAITGVYLYRENQGLPLYSRLHKWAQGLAGNGAAPDNVEMALLPS
